Data from PubChem BioAssay AID1347076 (National Center for Advancing Translational Sciences (NCATS), 2019).
Out of some 400,000 compounds screened, about 13,000 (3.2%) were called active. Inconclusive means that the source gave no clear call. Such entries were picked first, then a sample of the others. Calls follow the shape of the dose curve; as a rule, active = well fitted cell-killing curve with a large enough effect; inconclusive = small, poorly fitted or top-dose-only effect, or effect the other way; inactive = flat fitted curve, though single readings scatter. Where the call is inconclusive, the potency comes from a doubtful curve fit.

Experiment: qHTS assay for MDR1-selective chemotherapeutics: Primary screen using the drug-selected MDR subline cells KB-V1; also: nearly all actives have a fitted effect of over 60% in size
Conditions: KB-V1 MDR cells viability, CellTiter-Glo, 72 h; activity change, negative = cytotoxicity: at 46.1 µM (top of the series)
Procedure, shortened: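 In this primary screen, KB-V1 cells overexpressing P-gp are incubated with library compounds (lowest to highest concentration) for 72 h at 37 degrees C before a luminescent ATP viability read.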
% is scaled to controls: 0 for no effect and ±100 for the full control effect; potency is read from the fitted curve at half-maximal effect.

| Compound | Potency | activity change, negative = cytotoxicity |
| --- | --- | --- |
| CCCCn1c(O)c(C(C)=NCc2cc(OC)cc(OC)c2)c(=O)[nH]c1=O | inconclusive: 16.4 µM [cytotoxic, partial curve, poor fit] |  |
| CCN(c1ccc(C(O)(C(=O)OC)C(F)(F)F)cc1)S(=O)(=O)c1ccccc1 (configuration not stated) | inactive |  |
| Cc1cc(C)c2c(ccc3cccc[n+]32)c1 | inconclusive: 9.2 µM [rising, partial curve, poor fit] |  |
| C=CCn1c(O)c(/C=N/NC(=O)c2ccncc2)c(=O)[nH]c1=O | inconclusive: 0.58 µM [rising, full curve] |  |
| CCOC(=O)N(CC)c1ccc(C(O)(C(=O)OCC)C(F)(F)F)cc1 (configuration not stated) | inactive |  |
| COC(=O)N1C(c2ccccc2)C1c1ccccc1 (configuration not stated) | inactive |  |
| COC(=O)C1=C(c2ccc(F)cc2OCc2ccccc2)C[C@@H]2CC[C@H]1N2C(=O)N1CCC(C)CC1 | inconclusive: 20.6 µM [cytotoxic, single point] |  |
| COc1cccc(O)c1CN1CCCC(C(=O)c2sccc2C)C1 (configuration not stated) | inconclusive: 7.31 µM [cytotoxic, partial curve] |  |
| O=C(Nc1ccc(F)cc1)OC1CN2CCC1CC2 (configuration not stated) | inactive |  |
| Cc1ccc(-c2nc3ccccc3c(=O)n2-c2cccc(O)c2)cc1 | inactive |  |
| CCCCn1c(=O)c(C(=O)Nc2ccccc2N)c(O)c2ccccc21 | inconclusive: 18.4 µM [cytotoxic, single point] |  |
| CCOC(=O)[C@]12Cc3ccsc3[C@H]1N(Cc1ccccc1)C(=O)c1ccccc12 | inconclusive: 8.2 µM [cytotoxic, partial curve] |  |
| CCS(=O)(=O)N1CCC(C(=O)N2CCC3(CC2)OCCO3)CC1 | inconclusive: 23.1 µM [rising, single point] |  |
| OC(CNCc1ccccc1)c1ccc(Cl)cc1 (configuration not stated) | inactive |  |
| COc1cccc(OC)c1C(=O)NC(=S)N1C[C@H]2C[C@H](C1)c1cccc(=O)n1C2 | inconclusive: 29.1 µM [rising, single point] |  |
| Cn1c(N2CCNCC2)nc2ccccc21 | inactive |  |
| COc1cccc(C(=O)C2CCCN(Cc3ccc4nonc4c3)C2)c1 (configuration not stated) | inconclusive: 18.4 µM [cytotoxic, partial curve, poor fit] |  |
| CCCCCc1nc2c(c(=O)c3ccccc3n2C)c(=O)n1C1CCCCCC1 | inconclusive: 9.2 µM [cytotoxic, partial curve, poor fit] |  |
| CC(O)C1C=CC=CC(=O)OC2CC3OC4C5OC5(C)C(O)CC4(COC(=O)C(O)C(C)CCO1)C2(C)C31CO1 (configuration not stated) | inconclusive: 16.4 µM [cytotoxic, single point] |  |
| O=c1[nH]c(=S)[nH]c(O)c1N=Nc1ccc(S(=O)(=O)N2CCc3ccccc32)cc1 | inconclusive: 3.26 µM [cytotoxic, partial curve, poor fit] |  |
| CCCCCn1c(=O)c(C(=O)Nc2cccc(C)n2)c(O)c2ccccc21 | inconclusive: 13 µM [cytotoxic, partial curve, poor fit] |  |
| CCOC(=O)C1(c2ccccc2)CCN(CC(=O)Nc2cccc3ccccc23)CC1 | active: 3.66 µM |  |
| COc1ccc(-c2n(-c3ccccn3)c3ccccc3[n+]2-c2ccccn2)cc1 | inconclusive: 7.31 µM [cytotoxic, partial curve] |  |
| O=c1[nH]c(O)c(C=Nc2ccc(Cl)c(C(F)(F)F)c2)c(=O)[nH]1 | inconclusive: 18.4 µM [rising, partial curve, poor fit] |  |

In the list so far, these contain sulfur.

| Compound | Potency | activity change, negative = cytotoxicity |
| --- | --- | --- |
| CCN(c1ccc(C(O)(C(=O)OC)C(F)(F)F)cc1)S(=O)(=O)c1ccccc1 (configuration not stated) | inactive |  |
| COc1cccc(O)c1CN1CCCC(C(=O)c2sccc2C)C1 (configuration not stated) | inconclusive: 7.31 µM [cytotoxic, partial curve] |  |
| CCOC(=O)[C@]12Cc3ccsc3[C@H]1N(Cc1ccccc1)C(=O)c1ccccc12 | inconclusive: 8.2 µM [cytotoxic, partial curve] |  |
| CCS(=O)(=O)N1CCC(C(=O)N2CCC3(CC2)OCCO3)CC1 | inconclusive: 23.1 µM [rising, single point] |  |
| COc1cccc(OC)c1C(=O)NC(=S)N1C[C@H]2C[C@H](C1)c1cccc(=O)n1C2 | inconclusive: 29.1 µM [rising, single point] |  |
| O=c1[nH]c(=S)[nH]c(O)c1N=Nc1ccc(S(=O)(=O)N2CCc3ccccc32)cc1 | inconclusive: 3.26 µM [cytotoxic, partial curve, poor fit] |  |

The list goes on.

| Compound | Potency | activity change, negative = cytotoxicity |
| --- | --- | --- |
| N#Cc1ccccc1NC(=O)c1cccn(Cc2ccccc2)c1=O | inactive |  |
| Nc1cc(Cl)c2nonc2c1[N+](=O)[O-] | inconclusive: 2.59 µM [cytotoxic, full curve] |  |
| C#CC[N+]1(C)C2CCC1CC(O)C2 (configuration not stated) | inactive |  |
| C=CCn1c(O)c(C(C)=NC(C)c2ccccc2)c(=O)[nH]c1=O (configuration not stated) | inconclusive: 25.9 µM [cytotoxic, partial curve, poor fit] |  |
| CCOc1ccccc1-n1c(O)c(C=NCCCn2ccnc2)c(=O)[nH]c1=O | inconclusive: 18.4 µM [rising, single point] |  |
| CC(C)n1cc(C(=O)N(CC(=O)NC2CCCC2)Cc2ccccc2)cn1 | active: 13 µM |  |
| O=C(Nc1nc(-c2ccccc2)c(-c2ccccc2)s1)c1ccc(S(=O)(=O)N(CCCl)CCCl)cc1 | inconclusive: 9.2 µM [cytotoxic, partial curve] |  |
| COc1cc(CN=C(C)c2c(O)n(C)c(=O)n(C)c2=O)cc(OC)c1 | inconclusive: 20.6 µM [cytotoxic, single point] |  |
| NC(=Nc1ccccc1)NN=Cc1c[nH]c2ccccc12 | active: 2.59 µM |  |
| NP(=O)(OCCCc1ccccc1)Oc1ccccc1Cl (configuration not stated) | inconclusive: 5.8 µM [rising, partial curve] |  |
| CCOC(=O)c1ccc(NC(=O)c2cccn(Cc3ccccc3F)c2=O)cc1 | active: 5.8 µM |  |
| O=C1CC(c2ccccc2Br)c2c(c3ccccc3oc2=O)O1 (configuration not stated) | inactive |  |
| OCCOCCO | inconclusive: 2.91 µM [rising, full curve, poor fit] |  |
| CC1CC2C(C(O)CC3(C)C(O)CCC23)C2(C)CCC(=O)C=C12 (configuration not stated) | active: 6.51 µM |  |
| CC(=O)[C@H]1CCC2C3CC[C@H]4C[C@@H](O)CC[C@]4(C)C3CC[C@@]21C (some centres not stated) | inconclusive: 23.1 µM [cytotoxic, single point] |  |
| CC(=O)Nc1ccccc1C(=O)OCC(=O)c1cccc2ccccc12 | inactive |  |
| NCCc1nc2ccccc2s1 | inconclusive: 16.4 µM [rising, single point] |  |
| Cc1ccc(-n2c(/C=C/c3ccccc3)nc3ccccc3c2=O)cc1Cl | inactive |  |
| CCCCCSc1cc(OC)c(CCN)cc1OC | inconclusive: 4.11 µM [cytotoxic, full curve, poor fit] |  |
| CC(N=Cc1c(O)n(C2CC2)c(=S)[nH]c1=O)c1ccccc1 (configuration not stated) | inconclusive: 8.2 µM [rising, partial curve, poor fit] |  |
| CC(O)(CS(=O)(=O)c1ccccc1)C(=O)Nc1cccc(C(F)(F)F)c1 (configuration not stated) | active: 20.6 µM |  |
| O=C(COC(=O)c1ccc(O)cc1)Nc1ccc(Cl)cc1C(=O)c1ccccc1 | inconclusive: 18.4 µM [cytotoxic, single point] |  |
| Cc1ccc(OCC(=O)N2CCCC(N3CCN(c4ccc(F)cc4)CC3)C2)cc1 (configuration not stated) | inactive |  |
| Cn1cccc1/C=C1\C(=O)NC(=O)N(Cc2ccccc2)C1=O | inconclusive: 23.1 µM [cytotoxic, single point] |  |

| Compound | Potency | activity change, negative = cytotoxicity |
| --- | --- | --- |
| CN(CC=CCN(C)P(=S)(N1CC1)N1CC1)P(=S)(N1CC1)N1CC1 | inactive |  |
| COC(=O)C1=C(c2ccccc2)C[C@@H]2CC[C@H]1N2C(=O)NCCS(C)=O (some centres not stated) | inconclusive: 20.6 µM [rising, single point] |  |
| COc1ccc(NP(=O)(Oc2ccc(Cl)cc2)Oc2ccc(Cl)cc2)cc1OC | inconclusive: 7.31 µM [cytotoxic, partial curve, poor fit] |  |
| CC(C)OC(=O)c1c(N)n(CC2CCCO2)c2nc3ccccc3nc12 (configuration not stated) | inconclusive: 8.2 µM [cytotoxic, partial curve, poor fit] |  |
| CCCCn1c(O)c(C(CC)=NCc2ccc(F)cc2)c(=O)[nH]c1=O | active: 10.3 µM |  |
| Cc1ccccc1OP(=O)(Oc1ccccc1C)N1CCOCC1 | inconclusive: 16.4 µM [cytotoxic, single point] |  |
| CCCCCCn1c(=O)c(C(=O)Nc2ncccc2O)c(O)c2ccccc21 | inconclusive: 7.31 µM [cytotoxic, partial curve, poor fit] |  |
| CCOC(=O)c1c(C)n(Cc2ccc3c(c2)OCO3)c2ccc(O)cc12 | inactive |  |
| COC(=O)C1=C(c2ccc(F)cc2OCc2ccccc2)C[C@@H]2CC[C@H]1N2C(=O)N1CCCCC1 | inconclusive: 29.1 µM [cytotoxic, single point] |  |
| COc1cc2c(cc1OC)-c1c3c(cc4c1[C@@H](C2)N(C)CC4)OCO3 |  | inconclusive: -31% [cytotoxic] |
| CNC(C)Cc1ccccc1 (configuration not stated) | inactive |  |
| Cc1cc(OCC(=O)N2CCC(C(=O)O)CC2)c2c3c(c(=O)oc2c1)CCC3 | inactive |  |
| C[C@@H]1CN([C@@H](C)CO)C(=O)CCCn2nncc2CO[C@H]1CN(C)C(=O)Oc1cccc2ccccc12 | inactive |  |
| O=c1[nH]c(O)c(N=Nc2ccc([N+](=O)[O-])cc2)c(=O)[nH]1 | inactive |  |
| CC1=NCCc2c1[nH]c1ccccc21 | inconclusive: 25.9 µM [rising, single point] |  |
| O=c1[nH]c(=S)[nH]c(O)c1N=Nc1cccc(S(=O)(=O)N2CCOCC2)c1 | inactive |  |
| C[C@H]1[C@@H](OS(=O)(=O)O)C[C@@H]2C[C@H]([C@@H](O)c3cc(=O)[nH]c(=O)[nH]3)NC3=NC[C@H]1N32 | active: 2.06 µM |  |
| CN1/C(=C\C=C2C(=O)NC(=O)NC2=O)C(C)(C)c2ccccc21 | inconclusive: 29.1 µM [cytotoxic, single point] |  |
| Cc1ccc(/C=C2\C(=O)NC(=O)N(Cc3ccccc3Cl)C2=O)o1 | inconclusive: 32.6 µM [cytotoxic, single point] |  |
| O=C(Cc1ccccc1)N1CCN(CCCc2ccccc2)CC1 | inconclusive: 14.6 µM [cytotoxic, partial curve] |  |
| CCn1c(NN=O)nc2ccccc21 | inactive |  |
| Cc1ccc(-c2nn(Cc3ccccc3)cc2C=O)cc1C | inconclusive: 20.6 µM [cytotoxic, single point] |  |
| CC(CC(C#N)(c1ccccc1)c1ccccc1)N(C)C (configuration not stated) | inconclusive: 20.6 µM [cytotoxic, partial curve, poor fit] |  |
| O=c1[nH]c2ccccc2n1C1CCN(C(CCc2ccccc2)c2nnnn2C2CCCC2)CC1 (configuration not stated) | active: 3.26 µM |  |
